Log data for 69 compounds are collected here from the supplement of paper PMC7024190.

The structures appear in SMILES notation. Counter-ions that a name gives are not always drawn. This is one part of the list. Single values are uncertain here, since repeats match poorly.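 The cells were human embryonic kidney cells carrying a Renilla luciferase gene, driven by the HSV-TK promoter, on a plasmid put in briefly by transfection. This is the first-round screen of about ten thousand compounds, looking for ones that raise reporter output.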

For this experiment, the system named is HEK 293FT. Put plainly: log relative Renilla luciferase luminescence (reporter expression vs reference, reference not stated) (log (base not stated)); higher = higher recombinant reporter expression. The settings on record: 10 µM; time after transfection 48 h.
As to `Cc1cc(OC(=O)c2c(C)cc(O)cc2O)cc(O)c1C(=O)O` [lecanoric acid], the log is -0.00213.

Take `Cc1cc(C(C)(C)CC(C)(C)C)ccc1OCCOCC[N+](C)(C)Cc1ccccc1` [methylbenzethonium chloride]: the log is -0.442.

Regarding `Cc1cc(NC(=O)C2=C(O)c3ccccc3S(=O)(=O)N2C)no1` [isoxicam], the log worked out at 0.0529.

As to `CN(C)CCCN1c2ccccc2CCc2ccc(Cl)cc21` [clomipramine hydrochloride], the log was 0.0318.

`CO[C@@]1(NC(=O)C2SC(=C(C(N)=O)C(=O)O)S2)C(=O)N2C(C(=O)O)=C(CSc3nnnn3C)CS[C@@H]21` (some centres undefined) [cefotetan]: the log is -0.0784.

Take `C#C[C@]1(OC(C)=O)CC[C@H]2[C@@H]3CCC4=C[C@@H](OC(C)=O)CC[C@@H]4[C@H]3CC[C@@]21C` [ethynodiol diacetate]: the log was -0.0385.

Consider `C[C@@H]1CC[C@@]2(OC1)O[C@H]1C[C@H]3[C@@H]4CC[C@H]5C[C@@H](O)CC[C@]5(C)[C@H]4CC[C@]3(C)[C@H]1[C@@H]2C` [tigogenin], for which the log turned out to be 0.0578.

For `Nc1ccc(S(=O)(=O)Nc2ncccn2)cc1` [sulfadiazine], the log was determined as 0.0843.

Take `CO[C@@]1(NC(=O)C(C(=O)O)c2ccc(O)cc2)C(=O)N2C(C(=O)O)=C(CSc3nnnn3C)CO[C@@H]21` (some centres undefined) [moxalactam disodium]: the log turned out to be 0.0138.

In the case of `O=c1c(O)c(-c2ccccc2)oc2ccccc12` [3-hydroxyflavone], the log is -0.0117.

`C#C[C@]1(O)CC[C@H]2[C@@H]3CCC4=CC(=O)CC[C@@H]4[C@H]3CC[C@@]21C` [norethindrone]: the log is -0.0573.

For the compound `O=C1CC[C@@H](C(=O)O)N1` [pidolic acid], the log turned out to be 0.0284.

Turning to `CC(C)[C@@H]1CC[C@@H](C)C[C@H]1O` [levomenthol], the log turned out to be 0.0857.

As to `CC[C@@]1(O)C(=O)OCc2c1cc1n(c2=O)Cc2cc3cc(O)ccc3nc2-1` [10-hydroxycamptothecin], the log is -0.321.

Take `NS(=O)(=O)c1cc2c(cc1Cl)N=C(CSCc1ccccc1)NS2(=O)=O` [benzthiazide]: the log is -0.0821.

In the case of `CC(=O)OC/C=C(C)/C=C/C=C(C)/C=C/C1=C(C)CCCC1(C)C` [retinyl acetate], the log was -0.0121.

Turning to `O=C1C(CC[S+]([O-])c2ccccc2)C(=O)N(c2ccccc2)N1c1ccccc1` (centres undefined) [sulfinpyrazone], the log was -0.0693.

Regarding `OC[C@@H](O)[C@@H](O)CO` [erythritol], the log was 0.077.

Turning to `N=c1ccn2c(n1)O[C@H]1[C@H](O)[C@@H](CO)O[C@H]12` [ancitabine hydrochloride], the log is -0.126.

With `CC(=O)Oc1c(C)cccc1C(=O)O` [cresopirine], the log came to 0.082.

Consider `CCOc1cc(NC(C)=O)ccc1C(=O)OC` [ethopabate], for which the log is -0.0845.

Take `O=c1[nH]cc(F)c(=O)[nH]1` [fluorouracil]: the log came out at 0.0615.

For the compound `O=C(O)c1cc(=O)c2cccc(O)c2[nH]1` [xanthurenic acid], the log is -0.0119.

Take `C[C@]12C=CC(=O)C=C1CC[C@@H]1[C@@H]2[C@@H](O)C[C@@]2(C)[C@H]1CC[C@]2(O)C(=O)CO` [prednisolone]: the log was -0.0693.

With `CC(C)Cc1ccc([C@H](C)C(=O)O)cc1` [dexibuprofen], the log is -0.0526.

`CS(=O)(=O)c1ccc([C@@H](O)[C@@H](CO)NC(=O)C(Cl)Cl)cc1` [thiamphenicol]: the log was determined as 0.0444.

As to `O=C(O)Cc1ccccc1Nc1c(Cl)cccc1Cl` [diclofenac sodium], the log is -0.108.

Turning to `O=C(Nc1cc(Cl)cc(Cl)c1O)c1c(O)c(Cl)cc(Cl)c1Cl` [oxyclozanide], the log is -0.922.

In the case of `C[C@@H](c1ncncc1F)[C@](O)(Cn1cncn1)c1ccc(F)cc1F` [voriconazole], the log is -1.08.

With `O=c1cc(-c2cc(O)c(O)c(O)c2)oc2cc(O)cc(O)c12` [hieracin], the log came out at 0.00789.

For `C[C@@H]1O[C@@H](Oc2c(-c3ccc(O)c(O)c3)oc3cc(O)cc(O)c3c2=O)[C@H](O)[C@H](O)[C@H]1O` [quercitrin], the log was -0.0723.

Take `C[C@@H]1CC(=O)NN=C1c1ccc(NN=C(C#N)C#N)cc1` [levosimendan]: the log is -0.0919.

`N[C@H](Cc1ccccc1)C(=O)O` [d-phenylalanine]: the log was found to be 0.0832.

For the compound `O=C1C=CC(=C(c2ccc(O)cc2)c2ccc(O)cc2)C=C1` [rosolic acid], the log was 0.162.

As to `CCCc1nc(C)c2c(O)nc(-c3cc(S(=O)(=O)N4CCN(CC)CC4)ccc3OCC)nn12` [vardenafil hydrochloride], the log was -0.0187.

Consider `COc1cc2c(cc1OC)-c1cc3ccc(OC)c(OC)c3c[n+]1CC2` [palmatine chloride], for which the log was 0.24.

For `COc1cc2c(cc1OC)-c1cc3ccc(OC)c(OC)c3c[n+]1CC2` [palmatine], the log is -0.536.

As for `COC(=O)[C@H]1[C@H]2C[C@@H]3c4[nH]c5cc(OC)ccc5c4CCN3C[C@H]2C[C@@H](OC(=O)c2cc(OC)c(OC)c(OC)c2)[C@@H]1OC` [reserpine], the log is -0.0449.

`CNC(=C[N+](=O)[O-])NCCSCc1ccc(CN(C)C)o1` [ranitidine hydrochloride]: the log was -0.0535.

For the compound `CC(C)(CO)[C@@H](O)C(=O)NCCCO` [dexpanthenol], the log is -0.0411.

As to `C[C@]12CC[C@@H](O)C[C@H]1CCc1ccccc12` [3alpha-hydroxy-4,4-bisnor-8,11,13-podocarpatriene], the log is 0.0483.

As for `O=C(O[C@@H]1Cc2c(O)cc(O)cc2O[C@@H]1c1cc(O)c(O)c(O)c1)c1cc(O)c(O)c(O)c1` [epigallocatechin-3-monogallate], the log is 0.0398.

For `CCOC(=O)[C@H](CCc1ccccc1)N[C@@H](C)C(=O)N1[C@H](C(=O)O)C[C@H]2CCCC[C@@H]21` [trandolapril], the log is -0.127.

Take `CC[C@H](CC[C@@H](C)[C@H]1CC[C@H]2[C@@H]3CC=C4C[C@@H](OC(C)=O)CC[C@]4(C)[C@H]3CC[C@]12C)C(C)C` [sitosteryl acetate]: the log is -0.0361.

`CC(C(=O)O)[C@H]1CCC2C3CC=C4C[C@@H](O)CC[C@]4(C)C3CC[C@@]21C` (stereo partly drawn) [3beta-hydroxy-23,24-bisnorchol-5-enic acid]: the log was -0.25.

On to `CN1C(=O)CC(C)(c2ccccc2)C1=O` (centres undefined) [methsuximide], for which the log is -0.0732.

For `CCN(CC)CCNC(=O)c1ccc(NC(C)=O)cc1` [acecainide hydrochloride], the log was determined as 0.12.

With `CNC[C@H](O)c1cccc(O)c1` [phenylephrine hydrochloride], the log was -0.0953.

Turning to `CO[C@H]1C[C@@H]2CC[C@@H](C)[C@@](O)(O2)C(=O)C(=O)N2CCCC[C@H]2C(=O)O[C@H]([C@H](C)C[C@@H]2CC[C@@H](O)[C@H](OC)C2)CC(=O)[C@H](C)/C=C(\C)[C@@H](O)[C@@H](OC)C(=O)[C@H](C)C[C@H](C)/C=C/C=C/C=C/1C` [sirolimus], the log turned out to be 0.0773.

For `CCOc1ccccc1C(N)=O` [ethenzamide], the log is -1.12.

In the case of `COC(=O)C[C@H]1C(C)(C)[C@@H](OC(C)=O)[C@@H]2CC3=C4CC(=O)O[C@@H](c5ccoc5)[C@]4(C)CC[C@@H]3[C@@]1(C)C2=O` [fissinolide], the log was determined as 0.224.

Turning to `NS(=O)(=O)c1ccc(C(=O)O)cc1` [carzenide], the log is -0.0831.

Turning to `CC(=O)O[C@@H]1C[C@@]2(C)C(CC[C@@H]2C(C)=O)C2CCC3=CC(=O)CC[C@]3(C)C21` (some centres undefined) [11a-acetoxyprogesterone], the log came out at 0.0463.

With `CCN(CC)CCCC(C)Nc1c2ccc(Cl)cc2nc2ccc(OC)cc12` (centres undefined) [quinacrine hydrochloride], the log came to 0.135.

For the compound `Cc1nc(C)c(Cl)c(O)c1Cl` [clopidol], the log was 0.0409.

With `CCCCCCCCCCCCCCCC[N+](C)(C)CCN(Cc1ccc(OC)cc1)c1ncccn1` [thonzonium bromide], the log was 0.0296.

As for `O=C(O)P(=O)(O)O` [foscarnet sodium], the log is 0.0746.

Take `C#C[C@]1(O)CC[C@H]2[C@@H]3CCc4cc(OC)ccc4[C@H]3CC[C@@]21C` [mestranol]: the log was 0.0663.

`CC(C)NCC(O)c1ccc(NS(C)(=O)=O)cc1` (centres undefined) [sotalol hydrochloride]: the log is -0.128.

Regarding `CC(=O)N1CCN(c2ccc(OCC3COC(Cn4ccnc4)(c4ccc(Cl)cc4Cl)O3)cc2)CC1` (centres undefined) [ketoconazole], the log is -0.0999.

Take `CCn1cc(C(=O)O)c(=O)c2cc(F)c(N3CCN(C)CC3)cc21` [pefloxacine mesylate]: the log is 0.0481.

Take `CCCCC(=O)Oc1ccccc1C(=O)O` [valeryl salycilate]: the log amounted to 0.105.

With `Cc1ccc(S(=O)(=O)NCl)cc1` [chloramine-t], the log came to 0.0256.

For the compound `C[C@@H]1CN(c2c(F)c(N)c3c(=O)c(C(=O)O)cn(C4CC4)c3c2F)C[C@H](C)N1` [sparfloxacin], the log was 0.0698.

Regarding `C[C@@H]1O[C@@H]1P(=O)(O)O` [fosfomycin calcium], the log came out at 0.205.

On to `CC1(C)[C@@H](O[C@H]2O[C@H](C(=O)O)[C@@H](O)[C@H](O)[C@H]2O[C@@H]2O[C@H](C(=O)O)[C@@H](O)[C@H](O)[C@H]2O)CC[C@]2(C)[C@H]3C(=O)C=C4[C@@H]5C[C@@](C)(C(=O)O)CC[C@]5(C)CC[C@@]4(C)[C@]3(C)CC[C@@H]12` [glycyrrhizic acid, ammonium salt], for which the log is 0.00248.

As for `CCOC(=O)CCC(=O)O[C@H]1[C@H](O[C@@H]2[C@@H](C)[C@H](O[C@H]3C[C@@](C)(OC)[C@@H](O)[C@H](C)O3)[C@@H](C)C(=O)O[C@H](CC)[C@@](C)(O)[C@H](O)[C@@H](C)C(=O)[C@H](C)C[C@@]2(C)O)O[C@H](C)C[C@@H]1N(C)C` [erythromycin ethylsuccinate], the log is -0.101.

As to `C[C@]12C=CC(=O)C=C1CC[C@@H]1[C@@H]2C(=O)C[C@@]2(C)[C@H]1CC[C@]2(O)C(=O)CO` [prednisone], the log is -0.0051.

For the compound `CCn1cc(C(=O)O)c(=O)c2cc(F)c(N3CCNC(C)C3)c(F)c21` (centres undefined) [lomefloxacin hydrochloride], the log was -0.152.
